# Laboratory results reported in the supplement of paper PMC3334620.
# The full ranking holds about 33,000 sequences; the median of “E-score (-0.5 to 0.5)” is about -0.015, and the highest 2% start at about 0.3. The list shows a part of the results.
# Molecular target: T1, Abf1 (UniProt P14164)
# T1 sequence: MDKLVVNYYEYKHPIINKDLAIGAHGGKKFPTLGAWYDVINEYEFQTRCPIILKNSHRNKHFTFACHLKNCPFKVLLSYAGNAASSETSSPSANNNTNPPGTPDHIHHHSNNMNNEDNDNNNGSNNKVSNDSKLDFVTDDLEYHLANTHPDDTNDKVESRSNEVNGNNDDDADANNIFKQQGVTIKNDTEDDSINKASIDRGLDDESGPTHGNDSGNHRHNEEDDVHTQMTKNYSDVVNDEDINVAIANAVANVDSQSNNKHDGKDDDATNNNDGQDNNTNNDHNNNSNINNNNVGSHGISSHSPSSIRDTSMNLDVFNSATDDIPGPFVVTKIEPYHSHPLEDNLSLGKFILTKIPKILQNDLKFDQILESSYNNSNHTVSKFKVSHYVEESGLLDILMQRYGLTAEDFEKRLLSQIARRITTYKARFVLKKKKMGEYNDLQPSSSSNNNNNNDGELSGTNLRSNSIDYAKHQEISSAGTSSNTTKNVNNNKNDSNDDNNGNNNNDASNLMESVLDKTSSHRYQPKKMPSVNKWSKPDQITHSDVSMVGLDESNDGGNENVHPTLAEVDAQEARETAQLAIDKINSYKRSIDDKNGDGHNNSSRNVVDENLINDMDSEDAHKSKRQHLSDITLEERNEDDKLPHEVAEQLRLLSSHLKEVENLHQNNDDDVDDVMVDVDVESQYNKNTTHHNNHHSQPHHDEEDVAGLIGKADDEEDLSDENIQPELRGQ
# Assay: PBM E-score (8-mer binding enrichment) (E-score (-0.5 to 0.5)); higher = stronger / more preferred TF binding
# Conditions: protein concentration: 200 nM; construct: GST-full length
# Outline: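 The E-score, a modified Wilcoxon-Mann-Whitney statistic, was computed by the Universal PBM Analysis Suite for every ungapped eight-base word pooled with its reverse complement. Scans behind it were normalised with masliner after bound GST-tagged yeast transcription factors were detected with fluorescent anti-GST. The proteins, at about 100-200 nM, had been applied to universal all-10-mer Agilent arrays made double-stranded by primer extension.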
row,Sequence,PBM E-score
1,ATGGAATA,0.0752
2,AAAACCAG,-0.143
3,CCTATCTA,-0.0942
4,AATACCCC,-0.107
5,ATTTGATC,0.0937
6,CGCCTCAG,-0.107
7,GATTGGAC,-0.0886
8,ATCCGTCG,0.101
9,TAATCCCA,-0.0715
10,ACGGTGAT,0.293
11,AGCAACAA,0.0853
12,CAACGCGC,0.0401
13,AATATCTC,0.0817
14,ACTCATTA,0.164
15,ACAGAGCA,-0.171
16,GTCCTCGA,-0.0187
17,ATATTGCG,0.114
18,ATTTTGCC,-0.161
19,ATTGGGTG,0.066
20,ACAGAGAT,-0.0868
21,CACGCACG,-0.00936
22,GTCCGGAA,0.114
23,ACTAGGCA,-0.0379
24,ACCGTGGG,0.0314
25,TGCAGTAA,-0.0447

row,Sequence,PBM E-score
1,CATCGTGG,0.0192
2,AGGAGGGA,-0.249
3,GTTTCAAA,0.153
4,AGGTCGCA,-0.01
5,ACATACTC,-0.106
6,AATGTAGC,-0.0118
7,ACGGCAGC,0.134
8,CGTAGTGA,0.189
9,AGATAAAT,0.0712
10,GACACCAC,-0.0604
11,TAAAGAGA,-0.0206
12,GTCACTCA,0.238
13,CAGGCGGA,0.0934
14,CAGCGATC,0.0738
15,TGATAACA,0.341
16,GCAGCTCA,0.0042
17,ACTGCGTG,-0.196
18,GCAATCTA,-0.149
19,AACACCGC,-0.137
20,AAAATCAA,0.0207
21,CCACCTGA,-0.0561
22,GGAACGCC,-0.0866
23,ACGGCCTG,0.117
24,ATTTGCAA,0.0171
25,AGTTCGGA,-0.0882

row,Sequence,PBM E-score
1,ATCACTAC,0.375
2,TGTCTTAA,0.0939
3,CAGAGTAA,-0.22
4,ACGGGAAG,0.0734
5,GTTCCTTA,-0.00733
6,CAGAGATA,-0.00493
7,CTGGCTCC,-0.316
8,AGAGCCTC,-0.134
9,CGGCTACC,-0.0536
10,AATGCGTC,0.088
11,ACTAGCCC,-0.0228
12,AGAGGCAG,-0.121
13,AATAGTGA,0.358
14,AGCACGTG,0.155
15,AGGGAGTG,-0.188
16,TCATCGCA,0.221
17,GCTAGTAC,0.0984
18,CCAGGAAG,-0.105
19,AACTGTAT,-0.0417
20,CCTCATAG,-0.017
21,AACGAAAT,0.285
22,AAGGGACC,0.0128
23,TATCCTCA,0.177
24,AGGCAACT,-0.0398
25,AGAATGGC,-0.0247

row,Sequence,PBM E-score
1,GCGGGTAC,-0.144
2,ACGGTAAG,-0.00776
3,CAACCGAA,0.0339
4,ACAACACA,0.0492
5,ACAGCCAT,-0.201
6,AAGAAAGC,-0.109
7,AACTCCGT,0.127
8,AATGGGGG,-0.36
9,AGTTCGAT,0.0303
10,AAGAAATC,-0.0576
11,GAGAATAA,0.034
12,CGCAGGTC,-0.116
13,CCCCGTGA,0.121
14,GGATAAAC,0.0854
15,AAACTAGC,-0.132
16,GGTTACAA,0.0898
17,AATACATA,0.131
18,AACGGGCG,-0.0384
19,AACCTGCA,-0.0352
20,AAAGCACA,0.0854
21,ATACGCCG,-0.0403
22,ATACCTAA,0.16
23,TATAAATA,0.257
24,GGGTTTAC,-0.14
25,AGTGCCAA,0.0615

# Six neighbouring records already listed, for reference:
row,Sequence,PBM E-score
6,AAGAAAGC,-0.109
7,AACTCCGT,0.127
8,AATGGGGG,-0.36
9,AGTTCGAT,0.0303
10,AAGAAATC,-0.0576
11,GAGAATAA,0.034

# (cont.)

row,Sequence,PBM E-score
1,GGATGGCC,-0.256
2,CTGAGACC,-0.187
3,GATCTCAA,0.201
4,ACTGGCAC,-0.0495
5,AGCGAGTA,0.227
6,AGAGCGAA,-0.0605
7,GCTCATGA,0.122
8,GAGGGGTA,-0.301
9,CATTAGAC,0.0041
10,AAGACCCA,-0.292
11,CCTTCCCA,-0.146
12,AGTGGGAT,-0.0635
13,TAATCTAA,0.0149
14,GATACGGC,0.199
15,CCAGAAGC,-0.303
16,AAATAACA,0.0959
17,GCACACGC,-0.209
18,CTAATACA,0.0732
19,CAGATCAA,-0.161
20,CCATCAAA,-0.166
21,ATAGCCCC,-0.202
22,GCCAAGCA,-0.129
23,AAGCCTTC,-0.138
24,CTGGACTC,-0.0544
25,ACGTCAGA,0.025

row,Sequence,PBM E-score
1,CGGTGAAG,0.00725
2,GTATCATA,0.259
3,AGAAATTG,0.103
4,CCATCTCA,-0.0428
5,CAAGTCGC,-0.00386
6,ACGAGCAC,0.201
7,ACCTTCAA,0.0283
8,ATACGCTC,0.00441
9,AATTTTAG,0.134
10,AGTGCGGC,-0.0349
11,CCATCGCA,-0.0576
12,GGCCTATA,-0.251
13,CTACTCTC,-0.145
14,CCTTTCGC,0.00468
15,CGTTGGTC,-0.154
16,CGCCCGCG,-0.0644
17,CGGGTACA,-0.202
18,ACTCCTAT,0.0863
19,CACCGTAG,0.0588
20,TCCAGCGA,-0.0303
21,AACAACTA,0.0318
22,GCTAGCCA,-0.131
23,CACGACTA,0.156
24,CTCTATGC,-0.194
25,GTTACCGA,0.0226

row,Sequence,PBM E-score
1,TAGAACAA,-0.0912
2,CACGGGCC,0.0145
3,CGAGGAGC,-0.0167
4,GCAACTAC,-0.0516
5,CACAAACG,0.0262
6,CCGTGGAC,0.0198
7,CGGATTAA,-0.0169
8,CGCGTATA,-0.0856
9,GTCCGAAC,-0.0605
10,AGGGGCAC,-0.299
11,ATCTAGCG,-0.101
12,CCTTTGGC,-0.128
13,CACTAGAA,-0.00226
14,CGAATTTC,0.0635
15,CACCTCCG,0.00872
16,CGGGATAA,0.0608
17,AGTTCAGG,-0.0767
18,AGTGGACA,0.0861
19,ATAGCATG,0.0758
20,GGATAAAA,0.158
21,AGACACAC,-0.191
22,CCGGCGGC,-0.194
